The other results are listed elsewhere or left out. Measured potencies and affinities stand elsewhere. Entries without a call are filed as inconclusive in the source.
test: AR112GFP polyglutamine androgen receptor turnover promoters – cell-based, GFP fluorescence (AID 1607); conditions: cells expressing AR112-GFP, stronger effect = lower value

Structure (SMILES) | normalized GFP signal
COc1ccc(C[C@H](N)C(=O)N[C@@H]2[C@@H](CO)OC(n3cnc4c(N(C)C)ncnc43)[C@@H]2O)cc1 (stereo partly drawn) | 0.667
C[N+](C)(C)CCOC(N)=O | 1.01
Cc1cc(C2CCCCC2)n(O)c(=O)c1 | 0.741
CC(C)C(=O)Nc1ccc([N+](=O)[O-])c(C(F)(F)F)c1 | 0.949
CN(C)c1ccc(C(=C2C=CC(=[N+](C)C)C=C2)c2ccc(N(C)C)cc2)cc1 | 0.545
CC(=O)Nc1ccc(S(=O)(=O)Nc2ccc([N+](=O)[O-])cc2)cc1 | 1.39
Nc1c(Br)cc(Br)cc1CNC1CCC(O)CC1 (stereo not drawn) | 0.852
C[C@H](CS)C(=O)N1CCC[C@H]1C(=O)O | 0.988
CC1(C)O[C@@H]2CC3C4C[C@H](F)C5=CC(=O)C=CC5(C)C4C(O)CC3(C)[C@]2(C(=O)CO)O1 (stereo partly drawn) | 1.3
C[C@H]1c2cccc(O)c2C(O)=C2C(=O)[C@]3(O)C(O)=C(C(N)=O)C(=O)[C@@H](N(C)C)[C@@H]3[C@@H](O)[C@@H]21 | 0.906
Cc1cc(C(C)(C)CC(C)(C)C)ccc1OCCOCC[N+](C)(C)Cc1ccccc1 | 0.602
CC(Cc1ccc(O)c(O)c1)C(C)Cc1ccc(O)c(O)c1 (stereo not drawn) | 0.683
Cn1nnnc1SCC1=C(C(=O)O)N2C(=O)C(NC(=O)C(OC=O)c3ccccc3)C2SC1 (stereo not drawn) | 0.955
Oc1c(Cl)cc(Cl)c(Cl)c1Cc1c(O)c(Cl)cc(Cl)c1Cl | 0.638
CC(NCCC(c1ccccc1)c1ccccc1)c1ccccc1 (stereo not drawn) | 0.93
CCCC(CCC)C(=O)O | 0.912
O=NN(CCCl)C(=O)NCCCl | 1.09
O=C(Nc1ccc([N+](=O)[O-])cc1Cl)c1cc(Cl)ccc1O | 0.503

A second format for part of the listing above.
Structure (SMILES)	normalized GFP signal
CN(C)c1ccc(C(=C2C=CC(=[N+](C)C)C=C2)c2ccc(N(C)C)cc2)cc1	0.545
CC(=O)Nc1ccc(S(=O)(=O)Nc2ccc([N+](=O)[O-])cc2)cc1	1.39
